PubChem BioAssay AID504808 – Drosophila RNAi Screening Center | 2011
Aim: 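Chromatin factors that keep E2F targets switched off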 (primary screen). Cell system: Drosophila S2 cells. Reagents: long dsRNA against Drosophila genes. Measured: 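Dual luciferase plate measurements; E2F-specific signal taken as firefly over Renilla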. Direction: E2F firefly: higher = more E2F reporter activity; Renilla normaliser: higher = more normaliser reporter signal. Hit rule: 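a knock-down counted as active when the firefly/Renilla E2F signal rose above 50%, a threshold chosen arbitrarily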.
In all, the deposit lists about 21,000 reagents; shown is a random part of those with a known target gene and a result. In the full data, 18 (0.084%) were called active. 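Raw counts without plate normalisation, one of two replicates; the ratio scores behind the calls were not deposited.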 Names joined by + are all predicted targets of the reagent. No sequences are given here. Not given: the amount of reagent, the time to read-out.

target gene | amplicon | E2F firefly, rep 1 | Renilla normaliser, rep 1 | Call
Or43b (Odorant receptor 43b) | DRSC07486 | 1.48e5 | 5291 | inactive
HP1e (Heterochromatin Protein 1e) | DRSC16379 | 1.35e5 | 5828 | inactive
fkh (fork head) | DRSC16949 | 1.10e5 | 5889 | inactive
EMC7 (ER membrane protein complex subunit 7) | DRSC07162 | 1.46e5 | 5372 | inactive
CG15080 | DRSC06511 | 1.34e5 | 4474 | inactive
Usf | DRSC18129 | 1.04e5 | 5681 | inactive
CG34296 | DRSC13961 | 82197 | 2674 | inactive
CG5327 | DRSC06930 | 1.38e5 | 5042 | inactive
CG13707 | DRSC08316 | 1.00e5 | 3525 | inactive
CG3655 | DRSC17676 | 83630 | 2983 | inactive
CG3655 | DRSC18181 | 60385 | 4630 | inactive
CG3655 | DRSC18477 | 71585 | 5032 | inactive
RabGGTb (Rab geranylgeranyltransferase subunit beta) | DRSC00804 | 96835 | 3907 | inactive
lncRNA:CR42646 (long non-coding RNA:CR42646) | DRSC04759 | 1.37e5 | 5192 | inactive
CG17002 | DRSC04978 | 85674 | 3688 | inactive
CG43897 | DRSC10965 | 75559 | 4710 | inactive
CG43897 | DRSC10967 | 1.16e5 | 6483 | inactive
Takl1 (Tak1-like 1) | DRSC13443 | 83836 | 2552 | inactive
CG13324 | DRSC06361 | 1.04e5 | 4101 | inactive
Sirt4 (Sirtuin 4) | DRSC18290 | 1.09e5 | 5549 | inactive
Gr58a (Gustatory receptor 58a) | DRSC03910 | 1.25e5 | 4645 | inactive
SkpE (SKP1-related E) | DRSC19431 | 1.48e5 | 5216 | inactive
CG13408 | DRSC13534 | 71493 | 2827 | inactive
CG13408 | DRSC14584 | 1.46e5 | 7597 | inactive
CG31683 + CG18858 | DRSC02703 | 1.06e5 | 4150 | inactive
Tina-1 (Troponin C-akin-1) | DRSC04317 | 82288 | 3507 | inactive
CG12093 | DRSC08252 | 81817 | 3301 | inactive
RIOK1 (RIO kinase 1) | DRSC09853 | 69845 | 3176 | inactive
Nop17l (Nop17 like) | DRSC06556 | 2901 | 175 | inactive
CG32651 | DRSC18941 | 82121 | 2813 | inactive
dmrt11E (doublesex-Mab related 11E) | DRSC19715 | 1.10e5 | 6008 | inactive
Tsp42Eg (Tetraspanin 42Eg) | DRSC06112 | 90917 | 4133 | inactive
asRNA:CR33945 (antisense RNA:CR33945) | DRSC14080 | 78133 | 2624 | inactive
Rpt6R (Regulatory particle triple-A ATPase 6-related) | DRSC15431 | 1.26e5 | 6504 | inactive
CG6362 | DRSC07413 | 1.35e5 | 4866 | inactive
CG3566 | DRSC18311 | 80068 | 4293 | inactive
CG7786 | DRSC07045 | 1.28e5 | 4301 | inactive
CG3348 | DRSC15480 | 1.26e5 | 7319 | inactive
CG6610 | DRSC10674 | 87183 | 3462 | inactive
CG13306 | DRSC09976 | 1.08e5 | 4576 | inactive
Ald2 (Aldolase 2) | DRSC15799 | 97563 | 5086 | inactive
Hcs (Holocarboxylase synthetase) | DRSC12070 | 80442 | 4180 | inactive
Hcs (Holocarboxylase synthetase) | DRSC12256 | 1.40e5 | 6314 | inactive
CG7974 | DRSC08607 | 68323 | 3607 | inactive
SA2 (Stromalin 2) | DRSC08385 | 1.04e5 | 4452 | inactive
CG31191 | DRSC13455 | 88564 | 2686 | inactive
CG31191 | DRSC15214 | 1.31e5 | 7351 | inactive
CG31191 | DRSC15215 | 1.17e5 | 6099 | inactive
vkg (viking) | DRSC03632 | 1.37e5 | 4760 | inactive
kirre (kin of irre) | DRSC18785 | 1.19e5 | 6693 | inactive
phu (phurba tashi) | DRSC16390 | 1.50e5 | 7067 | inactive
CG12698 | DRSC19485 | 1.50e5 | 6618 | inactive
CG11562 | DRSC00316 | 1.59e5 | 5892 | inactive
CG7326 | DRSC20037 | 1.44e5 | 5816 | inactive
gammaSnap1 (gamma Soluble NSF attachment protein 1) | DRSC04686 | 76694 | 4122 | inactive
CG10352 | DRSC19353 | 1.23e5 | 5968 | inactive
Tim8 | DRSC20291 | 1.12e5 | 5551 | inactive
Cda5 (Chitin deacetylase-like 5) | DRSC00003 | 1.33e5 | 5125 | inactive
Cda5 (Chitin deacetylase-like 5) | DRSC00529 | 1.54e5 | 5392 | inactive
Cda5 (Chitin deacetylase-like 5) | DRSC00532 | 1.66e5 | 5748 | inactive
TfIIA-S (Transcription-factor-IIA-S) | DRSC16883 | 82720 | 5583 | inactive
CG5704 | DRSC08572 | 74681 | 3848 | inactive
Est-P (Esterase P) | DRSC11163 | 1.40e5 | 7358 | inactive
CG31406 | DRSC12777 | 75777 | 3828 | inactive
okr (okra) | DRSC00834 | 81091 | 4051 | inactive
UQCR-C1 (Ubiquinol-cytochrome c reductase core protein 1) | DRSC15508 | 65201 | 3686 | inactive
ppk21 (pickpocket 21) | DRSC14466 | 1.35e5 | 6391 | inactive
Cdk5alpha (Cdk5 activator-like protein) | DRSC03290 | 1.38e5 | 5715 | inactive
porin | DRSC03594 | 80096 | 3337 | inactive
GstD9 (Glutathione S transferase D9) | DRSC14185 | 1.47e5 | 6834 | inactive
CG13040 | DRSC09921 | 1.79e5 | 8897 | inactive
Mrgn1 (Mahogunin ring finger 1) | DRSC20223 | 7922 | 732 | inactive
ppk13 (pickpocket 13) | DRSC02382 | 1.03e5 | 4363 | inactive
ND-24L (NADH dehydrogenase (ubiquinone) 24 kDa subunit-like) | DRSC10650 | 1.40e5 | 6123 | inactive
mute (muscle wasted) | DRSC06562 | 1.29e5 | 5043 | inactive
Mal-A5 (Maltase A5) | DRSC07232 | 3245 | 212 | inactive
CG11155 | DRSC17184 | 72030 | 2179 | inactive
CG11155 | DRSC17205 | 1841 | 908 | inactive
CG4194 | DRSC18520 | 1745 | 924 | inactive
Nop60B (Nucleolar protein at 60B) | DRSC04627 | 77981 | 3611 | inactive
CG15107 | DRSC06534 | 1.31e5 | 4523 | inactive
ssp2 (short spindle 2) | DRSC11052 | 1.07e5 | 3755 | inactive
CG42523 | DRSC00251 | 1.25e5 | 5012 | inactive
Usp39 (Ubiquitin specific protease 39) | DRSC20032 | 1.36e5 | 5143 | inactive
fok (fledgling of Klp38B) | DRSC02103 | 96165 | 4233 | inactive
Gr66a (Gustatory receptor 66a) | DRSC10783 | 1.05e5 | 4109 | inactive
CG11360 | DRSC17124 | 89624 | 2394 | inactive
CG11360 | DRSC17134 | 55545 | 4598 | inactive
Hsp60A (Heat shock protein 60A) | DRSC20254 | 8006 | 776 | inactive
CG10151 | DRSC05974 | 151 | 29 | inactive
CG42471 | DRSC01210 | 1.36e5 | 7058 | inactive
CG8093 | DRSC07078 | 97604 | 4040 | inactive
TkR99D (Tachykinin-like receptor at 99D) | DRSC16881 | 1.28e5 | 6016 | inactive
Def (Defensin) | DRSC07398 | 1.32e5 | 4649 | inactive
Vha100-5 (Vacuolar H[+] ATPase 100kD subunit 5) | DRSC02175 | 1.36e5 | 4870 | inactive
CG18179 | DRSC10303 | 1.06e5 | 4911 | inactive
mRpL39 (mitochondrial ribosomal protein L39) | DRSC10255 | 1.67e5 | 8359 | inactive
CG6712 | DRSC02981 | 84979 | 4354 | inactive
CG15579 | DRSC18067 | 1.28e5 | 5555 | inactive
RpL24 (Ribosomal protein L24) | DRSC03185 | 59639 | 118 | inactive
CG5089 | DRSC06914 | 86955 | 3961 | inactive
Pgant3 (Polypeptide N-Acetylgalactosaminyltransferase 3) | DRSC05942 | 87427 | 3782 | inactive
CG15254 | DRSC01870 | 1.10e5 | 4448 | inactive
qin | DRSC14782 | 1.49e5 | 7799 | inactive
Arc2 (Activity-regulated cytoskeleton associated protein 2) | DRSC06436 | 97018 | 4322 | inactive
beat-IIa (beaten path IIa) | DRSC14813 | 1.15e5 | 6115 | inactive
beat-IIa (beaten path IIa) | DRSC14814 | 1.18e5 | 7202 | inactive

An excerpt of the results above:
target gene | amplicon | E2F firefly, rep 1 | Renilla normaliser, rep 1 | Call
CG31191 | DRSC13455 | 88564 | 2686 | inactive
CG31191 | DRSC15214 | 1.31e5 | 7351 | inactive
CG31191 | DRSC15215 | 1.17e5 | 6099 | inactive
vkg (viking) | DRSC03632 | 1.37e5 | 4760 | inactive
kirre (kin of irre) | DRSC18785 | 1.19e5 | 6693 | inactive
